{"sequences": {"note": "Chains of the proteins cited; added tags and fusions are not shown.", "UniProt Q14781": "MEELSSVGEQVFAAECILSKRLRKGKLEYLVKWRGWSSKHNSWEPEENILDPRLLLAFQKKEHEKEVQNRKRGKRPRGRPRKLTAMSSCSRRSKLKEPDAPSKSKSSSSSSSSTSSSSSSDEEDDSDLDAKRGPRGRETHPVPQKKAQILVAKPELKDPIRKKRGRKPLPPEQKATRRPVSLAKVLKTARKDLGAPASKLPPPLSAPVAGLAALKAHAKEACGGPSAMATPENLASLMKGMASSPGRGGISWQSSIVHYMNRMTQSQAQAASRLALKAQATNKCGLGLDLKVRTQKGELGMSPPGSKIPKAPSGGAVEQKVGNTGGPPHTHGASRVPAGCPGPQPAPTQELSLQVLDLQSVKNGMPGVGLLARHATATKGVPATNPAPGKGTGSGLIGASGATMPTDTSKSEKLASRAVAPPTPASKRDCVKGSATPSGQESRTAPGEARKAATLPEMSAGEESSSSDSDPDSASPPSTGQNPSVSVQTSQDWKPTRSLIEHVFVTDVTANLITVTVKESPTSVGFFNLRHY"}, "source": "paper PMC5945585", "target": "N-terminal GFP-tagged CBX2 (Tet-On inducible HeLa stable line) (human) (UniProt Q14781)", "assay": "affinity purification with mass spectrometry; GFP-Trap of GFP/CBX2 from HeLa nuclear extract (1 mg) against wt HeLa, triplicate; 300 mM NaCl, 0.15% NP-40, 20 mM HEPES-KOH pH 7.9, ethidium bromide; label-free LC-MS/MS", "note": "Results are given in words; binding and its absence hold for the method and conditions named. Binding seen in cells or lysates may run through a third protein. These calls come from enrichment with a bait or labelling near it, and not all partners need be listed.", "data": [{"binder": "CBX4 (endogenous) (protein, UniProt O00257 1-560) MELPAVGEHVFAVESIEKKRIRKGRVEYLVKWRGWSPKYNTWEPEENILDPRLLIAFQNRERQEQLMGYRKRGPKPKPLVVQVPTFARRSNVLTGLQDSSTDNRAKLDLGAQGKGQGHQYELNSKKHHQYQPHSKERAGKPPPPGKSGKYYYQLNSKKHHPYQPDPKMYDLQYQGGHKEAPSPTCPDLGAKSHPPDKWAQGAGAKGYLGAVKPLAGAAGAPGKGSEKGPPNGMMPAPKEAVTGNGIGGKMKIVKNKNKNGRIVIVMSKYMENGMQAVKIKSGEVAEGEARSPSHKKRAADERHPPADRTFKKAAGAEEKKVEAPPKRREEEVSGVSDPQPQDAGSRKLSPTKEAFGEQPLQLTTKPDLLAWDPARNTHPPSHHPHPHPHHHHHHHHHHHHAVGLNLSHVRKRCLSETHGEREPCKKRLTARSISTPTCLGGSPAAERPADLPPAAALPQPEVILLDSDLDEPIDLRCVKTRSEAGEPPSSLQVKPETPASAAVAVAAAAAPTTTAEKPPAEAQDEPAESLSEFKPFFGNIIITDVTANCLTVTFKEYVTV", "values": [{"measurement": "binding", "value": "binds"}]}]}
